Some entries share one result that the patent states for a list of compounds.
Molecular target: T1, TYK2 kinase domain (Homo sapiens, UniProt P29597)
T1 construct: made in house; host or cells: SF9 insect cells (recombinant baculovirus)
T1 sequence (P29597 873-1187): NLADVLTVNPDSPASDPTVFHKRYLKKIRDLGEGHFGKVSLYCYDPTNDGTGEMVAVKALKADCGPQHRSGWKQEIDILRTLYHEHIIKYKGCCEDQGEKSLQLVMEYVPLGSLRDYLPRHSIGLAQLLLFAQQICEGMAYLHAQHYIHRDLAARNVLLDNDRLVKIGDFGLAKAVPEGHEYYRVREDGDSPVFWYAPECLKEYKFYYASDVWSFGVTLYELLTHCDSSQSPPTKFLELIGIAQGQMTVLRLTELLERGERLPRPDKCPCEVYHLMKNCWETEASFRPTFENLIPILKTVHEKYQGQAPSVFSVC
Experiment: TYK2 inhibition assay (Caliper LabChip, isolated kinase domain)
Assay type: biochemical
Conditions: 25 uM ATP, values given as 'about'

Row | Compound | Ki [µM]
1 | O=C(Nc1ccnc(NC(=O)C2CC2)c1)c1c(Cl)cc(C(=O)N2CCOCC2)cc1Cl [Example 185, 2,6-dichloro-N-(2-(cyclopropanecarboxamido)-pyridin-4-yl)-4-(morpholine-4-carbonyl)benzamide] | < 3.5
2 | O=C(Nc1cc(NC(=O)c2c(Cl)cccc2Cl)ccn1)c1ccncn1 [Example 188, N-(4-(2,6-dichloro-benzamido)pyridin-2-yl)-pyrimidine-4-carboxamide] | < 3.5
3 | CNC(=O)c1ccc(Nc2cc(NC(=O)c3c(Cl)cccc3Cl)ccn2)nc1 [Example 189, 6-(4-(2,6-dichloro-benzamido)pyridin-2-ylamino)-N-methyl-nicotinamide] | < 3.5
4 | O=C(Nc1ccnc(NC(=O)C(F)F)c1)c1c(Cl)cccc1Cl [Example 190, 2,6-dichloro-N-(2-(2,2-difluoroacetamido)-pyridin-4-yl)benzamide] | < 3.5
5 | CN(C)CCNC(=O)c1ccc(Nc2cc(NC(=O)c3c(Cl)cccc3Cl)ccn2)nc1 [Example 192, 6-(4-(2,6-dichlorobenzamido)-pyridin-2-ylamino)-N-(2-(dimethylamino)-ethyl)nicotinamide] | < 3.5
6 | CNC(=O)c1cccc(Nc2cc(NC(=O)c3c(Cl)cccc3Cl)ccn2)n1 [Example 193, 6-(4-(2,6-dichlorobenzamido)-pyridin-2-ylamino)-N-methylpicolinamide] | < 3.5
7 | O=C(Nc1ccnc(Nc2ccc(CO)cn2)c1)c1c(Cl)cccc1Cl [Example 194, 2,6-dichloro-N-(2-(5-(hydroxymethyl)pyridin-2-ylamino)pyridin-4-yl)benzamide] | < 3.5
8 | O=C(Nc1cc(NC(=O)c2c(Cl)cccc2Cl)ccn1)NC1CC1 [Example 195, 2,6-dichloro-N-(2-(3-cyclopropylureido)pyridin-4-yl)benzamide] | < 3.5
9 | O=C(Nc1ccnc(Nc2ccnc(N3CCOCC3)n2)c1)c1c(Cl)cccc1Cl [Example 196, 2,6-dichloro-N-(2-(2-morpholinopyrimidin-4-ylamino)pyridin-4-yl)benzamide] | < 3.5
10 | CN(C)C(=O)c1ccc(Nc2cc(NC(=O)c3c(Cl)cccc3Cl)ccn2)nc1 [Example 198, 6-(4-(2,6-dichlorobenzamido)-pyridin-2-ylamino)-N,N-dimethylnicotinamide] | < 3.5
11 | Cc1ccc(Nc2cc(NC(=O)c3c(Cl)cccc3Cl)ccn2)nc1 [Example 199, 2,6-dichloro-N-(2-(5-methylpyridin-2-ylamino)-pyridin-4-yl)benzamide] | < 3.5
12 | O=C(CSC(F)F)Nc1cc(NC(=O)c2c(Cl)cccc2Cl)ccn1 [Example 201, 2,6-dichloro-N-(2-(2-(difluoromethylthio)-acetamido)pyridin-4-yl)benzamide] | < 3.5
13 | O=C(Nc1ccnc(NC(=O)C2CC(O)C2)c1)c1c(Cl)cccc1Cl (stereo not shown) [Example 202, 2,6-dichloro-N-(2-(3-hydroxycyclobutanecar-boxamido)pyridin-4-yl)benzamide] | < 3.5
14 | O=C(Nc1ccnc(Nc2cc(N3CCN(CCO)CC3)ncn2)c1)c1c(Cl)cccc1Cl [Example 203, 2,6-dichloro-N-(2-(6-(4-(2-hydroxyethyl)piperazin-1-yl)pyrimidin-4-ylamino)-pyridin-4-yl)benzamide] | < 3.5
15 | NC(=O)c1ccc(Nc2cc(NC(=O)c3c(Cl)cccc3Cl)ccn2)nc1 [Example 204, 6-(4-(2,6-dichloro-benzamido)pyridin-2-ylamino)nicotinamide] | < 3.5
16 | O=C(Nc1ccnc(NC(=O)C2CC2)c1)c1c(F)cccc1Cl [Example 205, 2-chloro-N-(2-(cyclopropanecarboxamido)-pyridin-4-yl)-6-fluorobenzamide] | < 3.5
17 | O=C(Nc1cc(NC(=O)c2c(Cl)cccc2Cl)ccn1)c1nc[nH]n1 [Example 206, N-(4-(2,6-dichloro-benzamido)pyridin-2-yl)-1H-1,2,4-triazole-3-carboxamide] | < 3.5
18 | CSCC(=O)Nc1cc(NC(=O)c2c(Cl)cccc2Cl)ccn1 [Example 207, 2,6-dichloro-N-(2-(2-(methylthio)acetamido)-pyridin-4-yl)benzamide] | < 3.5
19 | O=C(Nc1ccnc(Nc2ccncn2)c1)c1c(Cl)cc(C(=O)N2CCOCC2)cc1Cl [Example 208] | < 3.5
20 | O=C(Nc1ccnc(Nc2cc(N3CCOCC3)ncn2)c1)c1c(Cl)cccc1Cl [Example 210, 2,6-dichloro-N-(2-(6-morpholinopyrimidin-4-ylamino)pyridin-4-yl)benzamide] | < 3.5
21 | O=C(Nc1ccnc(Nc2ccnc(N3CCN(CCO)CC3)n2)c1)c1c(Cl)cccc1Cl [Example 211, 2,6-dichloro-N-(2-(2-(4-(2-hydroxyethyl)piperazin-1-yl)pyrimidin-4-ylamino)-pyridin-4-yl)benzamide] | < 3.5
22 | O=C(Nc1ccnc(NC(=O)C2CC2)c1)c1c(F)cccc1Br [Example 213, 2-bromo-N-(2-(cyclopropanecarboxamido)-pyridin-4-yl)-6-fluorobenzamide] | < 3.5

Row | Compound | Ki [µM]
23 | O=C1CC(C(=O)Nc2cc(NC(=O)c3c(Cl)cccc3Cl)ccn2)C1 [Example 214, 2,6-dichloro-N-(2-(3-oxocyclobutanecarboxamido)-pyridin-4-yl)benzamide] | < 3.5
24 | O=C(Nc1ccnc(Nc2nccc(N3CCOCC3)n2)c1)c1c(Cl)cccc1Cl [Example 216, 2,6-dichloro-N-(2-(4-morpholinopyrimidin-2-ylamino)pyridin-4-yl)benzamide] | < 3.5
25 | O=C(Nc1cc(NC(=O)c2c(Cl)cccc2Cl)ccn1)c1ccno1 [Example 217, N-(4-(2,6-dichlorobenzamido)-pyridin-2-yl)isoxazole-5-carboxamide] | < 3.5
26 | O=C(Nc1cc(NC(=O)c2c(Cl)cccc2Cl)ccn1)c1ccon1 [Example 218, N-(4-(2,6-dichlorobenzamido)-pyridin-2-yl)isoxazole-3-carboxamide] | < 3.5
27 | Cc1cc(Nc2cc(NC(=O)c3c(Cl)cccc3Cl)ccn2)ncn1 [Example 219, 2,6-dichloro-N-(2-(6-methylpyrimidin-4-ylamino)pyridin-4-yl)benzamide] | < 3.5
28 | Cc1cnc(Nc2cc(NC(=O)c3c(Cl)cccc3Cl)ccn2)nc1 [Example 220, 2,6-dichloro-N-(2-(5-methylpyrimidin-2-ylamino)pyridin-4-yl)benzamide] | < 3.5
29 | CC(C)OC(=O)Nc1cc(NC(=O)c2c(Cl)cccc2Cl)ccn1 [Example 224, Isopropyl 4-(2,6-dichlorobenzamido)pyridin-2-ylcarbamate] | < 3.5
30 | CC(C)NC(=O)Nc1cc(NC(=O)c2c(Cl)cccc2Cl)ccn1 [Example 225, 2,6-dichloro-N-(2-(3-isopropylureido)pyridin-4-yl)benzamide] | < 3.5
31 | Cc1ccnc(Nc2cc(NC(=O)c3c(Cl)cccc3Cl)ccn2)n1 [Example 227, 2,6-dichloro-N-(2-(4-methylpyrimidin-2-ylamino)pyridin-4-yl)benzamide] | < 3.5
32 | Cc1cc(C)nc(Nc2cc(NC(=O)c3c(Cl)cccc3Cl)ccn2)n1 [Example 228, 2,6-dichloro-N-(2-(4,6-dimethylpyrimidin-2-ylamino)pyridin-4-yl)benzamide] | < 3.5
33 | O=C(Nc1ccnc(Nc2ncco2)c1)c1c(Cl)cccc1Cl [Example 229, 2,6-dichloro-N-(2-(oxazol-2-ylamino)pyridin-4-yl)benzamide] | < 3.5
34 | O=C(Nc1ccnc(Nc2cnn(C3CCOCC3)c2)c1)c1c(Cl)cccc1Cl [Example 230, 2,6-dichloro-N-(2-(1-(tetrahydro-2H-pyran-4-yl)-1H-pyrazol-4-ylamino)pyridin-4-yl)benzamide] | < 3.5
35 | CC(C)c1cc(Nc2cc(NC(=O)c3c(Cl)cccc3Cl)ccn2)nc(N2CCN(S(C)(=O)=O)CC2)n1 [Example 231, 2,6-dichloro-N-(2-(6-isopropyl-2-(4-(methylsulfonyl)piperazin-1-yl)pyrimidin-4-ylamino)pyridin-4-yl)benzamide] | < 3.5
36 | Cn1ccc(Nc2cc(NC(=O)c3c(Cl)cccc3Cl)ccn2)n1 [Example 232, 2,6-dichloro-N-(2-(1-methyl-1H-pyrazol-3-ylamino)pyridin-4-yl)benzamide] | < 3.5
37 | O=C(Nc1ccnc(Nc2ncccc2F)c1)c1c(Cl)cccc1Cl [Example 233, 2,6-dichloro-N-(2-(3-fluoropyridin-2-ylamino)pyridin-4-yl)benzamide] | < 3.5
38 | O=C(O)c1ccc(Nc2cc(NC(=O)c3c(Cl)cccc3Cl)ccn2)cc1 [Example 234, 4-(4-(2,6-dichlorobenzamido)pyridin-2-ylamino)benzoic acid] | < 3.5
39 | O=C(Nc1ccnc(Nc2ccncn2)c1)c1c(Cl)cc(Cl)cc1Cl [Example 235, 2,4,6-trichloro-N-(2-(pyrimidin-4-ylamino)pyridin-4-yl)benzamide] | < 3.5
40 | N#Cc1cc(Cl)c(C(=O)Nc2ccnc(Nc3ccncn3)c2)c(Cl)c1 [Example 236, 2,6-dichloro-4-cyano-N-(2-(pyrimidin-4-ylamino)pyridin-4-yl)benzamide] | < 3.5
41 | Cc1cc(Nc2cc(NC(=O)c3c(Cl)cccc3Cl)c(N)cn2)nc(C)n1 [Example 237, N-(5-amino-2-(2,6-dimethylpyrimidin-4-ylamino)pyridine-4-yl)-2,6-dichlorobenzamide] | < 3.5
42 | Cc1cc(Nc2nccc(NC(=O)c3c(Cl)cc(C#N)cc3Cl)c2[N+](=O)[O-])nc(C)n1 [Example 238, 2,6-dichloro-4-cyano-N-(2-(2,6-dimethylpyrimidin-4-ylamino)-3-nitropyridin-4-yl)benzamide] | < 3.5
43 | O=C(Nc1ccnc(NC(=O)C2CC2)c1)c1c(Cl)cc(Cl)cc1Cl [Example 255, 2,4,6-trichloro-N-(2-(cyclopropanecarboxamido)pyridin-4-yl)benzamide] | < 3.5
